Here are results for two compounds from patent publication US10475593B2, “Use of halogen derivatives of histidine as electrolytic salt in a photovoltaic dye cell” (CENTRE NATIONAL DE LA RECHERCHE SCIENTIFIQUE, priority 2014, dated 2019).

The data set in a line: Photovoltaic conversion of dye-sensitized cells under AM 1.5 illumination. The conditions noted are these: for fill factor / light/electricity conversion efficiency / photocurrent / photovoltage: AM 1.5, 100 mW/cm^2, electrolyte salt 1 mol/l.

With `COC(=O)CCc1cn(C)c[n+]1C.[I-]` [Compound 3a, 4-(3-methoxy-3-oxopropyl)-1,3-dimethyl-1H-imidazol-3-ium Iodide], the fill factor amounted to 67%, the light/electricity conversion efficiency came to 8.5%, the photocurrent is reported as 19.5 mA/cm^2 and the photovoltage is given as 647 mV. Besides, the “gain in current versus DMII” value (replacement of DMII by 3a) is listed as “more than 15%”.

Regarding `Cn1cc[n+](C)c1.[I-]` [DMII, 1,3-Dimethylimidazolium iodide, reference compound], the fill factor was 69.3%, the light/electricity conversion efficiency came out at 8.0%, the photocurrent is 16.9 mA/cm^2 and the photovoltage stood at 680 mV.
